Reference: PubChem BioAssay AID330 (DTP/NCI, 2004)
The list does not hold the whole screen: it is rich in T/C values a quarter to a half above the control, in often repeated tests (any T/C) and in doses without a T/C. Further doses and runs are listed elsewhere. T/C is the treated group as % of the vehicle group. Some doses have a count of surviving animals in place of a T/C: the source files T/C as zero there, which appears to mark a toxic dose or a test without result, not a measured value. Some survivor counts are full or nearly so, which does not show that the dose was tolerated: the source hardly ever lists a survival T/C far under the control, and the zero likely stands for such cases as well. Survivors were counted at the toxicity check, usually on the fifth day, unless a day is given; later deaths do not show. Schedules are NCI's codes, taken here to give the interval after Q, in days (D) or hours (H), and the number of doses after X. Some doses were run more than once; the results are listed from low to high. Some schedules carry Z or #; the key to these is not given. Where survival is the endpoint, the PubChem record calls one and a half times the control and up active, and a quarter to a half above the control has no call in these data; cut-offs in other NCI protocols can differ.

Tested on: P388 leukemia ip, CD2F1 mice, survival T/C
Assay: NCI In Vivo Anticancer Drug Screen. Data for tumor model P388 Leukemia (intraperitoneal) in CD2F1 (CDF1) mice
Conditions: T/C endpoint: median survival time, higher T/C = longer survival
[1] = dose: 240.0 mg/kg/injection, schedule: Q01DX005 (ip), vehicle: saline
[2] = dose: 200.0 mg/kg/injection, schedule: Q01DX005 (ip), vehicle: saline with Tween-80
[3] = dose: 240.0 mg/kg/injection, schedule: Q01DX005 (ip), vehicle: saline with Tween-80
[4] = dose: 200.0 mg/kg/injection, schedule: Q01DX005 (ip), vehicle: saline

**Q.** How did the T/C (dose: 60.0 mg/kg/injection, schedule: Q01DX005 (ip), vehicle: Klucel (hydroxypropylcellulose) (HPC)) turn out when `CN1CCN(C(=O)/C=C/C(=O)c2ccccc2)CC1` was run?
**A.** The T/C was 127 % of control.

**Q.** And the T/C (dose: 120.0 mg/kg/injection, schedule: Q01DX005 (ip), vehicle: Klucel (hydroxypropylcellulose) (HPC))?
**A.** The T/C was 134 % of control.

**Q.** What about the survivor count (dose: 120.0 mg/kg/injection, schedule: Q01DX005 (ip), vehicle: saline) of the same compound?
**A.** Its survivor count is 1 of 6 and 2 of 6.

**Q.** What about the survivor count [1] of the same compound?
**A.** Its survivor count is 0 of 6.

**Q.** With `Nc1nc2ncc([N+](=O)[O-])cc2c(=O)[nH]1` as the compound, how does the survivor count [2] read?
**A.** Its survivor count is 3 of 5.

**Q.** With `CC(C)=CCCc1cc(-c2cc(CCC=C(C)C)nc(N)n2)nc(N)n1` as the compound, how does the survivor count [1] read?
**A.** Its survivor count is 0 of 6.

**Q.** With `COc1cc2c(c(OC)c1OC)-c1ccc(S(=O)(=O)Cc3ccccc3)c(=O)cc1C(NC(C)=O)CC2` (stereo not given) as the compound, how does the survivor count (dose: 50.0 mg/kg/injection, schedule: Q01DX009 (ip), vehicle: Klucel (hydroxypropylcellulose) (HPC)) read?
**A.** The survivor count was 0 of 6 and 2 of 6.

**Q.** Which T/C [3] does the source give for `C=CCOc1cc2c(cc1C(C)(C)c1ccc(OC)cc1)OCO2` here?
**A.** Its T/C is 126 % of control.

**Q.** `COc1cc2c(cc1OC)C1CC(=O)C(CC(C)C)CN1CC2` (stereo not given) was tested. Which survivor count (dose: 100.0 mg/kg/injection, schedule: Q01DX009 (ip), vehicle: Klucel (hydroxypropylcellulose) (HPC)) did it give?
**A.** Its survivor count is 0 of 6.

**Q.** `NC(CSCCCSCC(N)C(=O)O)C(=O)O` (stereo not given) was tested. Which survivor count (dose: 400.0 mg/kg/injection, schedule: Q01DX001 (ip), vehicle: Klucel (hydroxypropylcellulose) (HPC)) did it give?
**A.** Its survivor count is 1 of 6.

**Q.** What does the source list for `CCCOc1ccc2c(NCCCCCCNc3c4ccccc4nc4cc(OCCC)ccc34)c3ccccc3nc2c1`?
**A.** T/C (dose: 0.31 mg/kg/injection, schedule: Q## X009 (ip), vehicle: lactic acid): 127 % of control; T/C (dose: 1.25 mg/kg/injection, schedule: Q## X009 (ip), vehicle: lactic acid): 137 % of control; survivor count (dose: 10.0 mg/kg/injection, schedule: Q## X009 (ip), vehicle: lactic acid): 3 of 6; survivor count (dose: 20.0 mg/kg/injection, schedule: Q## X009 (ip), vehicle: lactic acid): 0 of 6

**Q.** For `COc1ccc2nc3cc(Cl)ccc3c(NCCCCNc3c4ccc(Cl)cc4nc4ccc(OC)nc34)c2n1`, which survivor count (dose: 400.0 mg/kg/injection, schedule: Q04DX003 (ip), vehicle: saline with Tween-80) is on record?
**A.** The survivor count was 6 of 6.

**Q.** Which survivor count [4] does the source give for `CC1CCCC2CCCOCN12` (stereo not given) here?
**A.** Its survivor count is 0 of 6.

**Q.** Which survivor count (dose: 240.0 mg/kg/injection, schedule: Q01DX005 (ip), vehicle: Klucel (hydroxypropylcellulose) (HPC)) does the source give for `Cc1cccc(N=NC2Sc3nc4ccccc4n3C2=O)c1` (stereo not given) here?
**A.** Its survivor count is 2 of 6.

**Q.** For `CN(C)CCSc1nc2ccccc2s1`, which survivor count [1] is on record?
**A.** The survivor count was 2 of 6.

**Q.** With `O=C(O)c1cc2c(ccc3ccccc32)[nH]1` as the compound, how does the survivor count (dose: 60.0 mg/kg/injection, schedule: Q01DX005 (ip), vehicle: saline with Tween-80) read?
**A.** Its survivor count is 0 of 6.

**Q.** And the survivor count (dose: 120.0 mg/kg/injection, schedule: Q01DX005 (ip), vehicle: saline with Tween-80)?
**A.** Its survivor count is 0 of 6.

**Q.** And the survivor count [3]?
**A.** Its survivor count is 0 of 6.

**Q.** Which survivor count [4] does the source give for `O=C(O)C(CO)NC(=O)C1CCCN1C(=O)OCc1ccccc1` (stereo not given) here?
**A.** Its survivor count is 5 of 6.

**Q.** With `COc1cc2c(cc1OC)C1C(C)c3ccc(OC)c(OC)c3CN1CC2` (stereo not given) as the compound, how does the survivor count (dose: 100.0 mg/kg/injection, schedule: Q01DX009 (ip), vehicle: saline) read?
**A.** The survivor count was 6 of 6.

**Q.** What about the survivor count (dose: 200.0 mg/kg/injection, schedule: Q01DX009 (ip), vehicle: saline) of the same compound?
**A.** Its survivor count is 6 of 6.

**Q.** Which T/C (dose: 25.0 mg/kg/injection, schedule: Q01DX009 (ip), vehicle: saline) does the source give for `C(COCC1CO1)OCC1CO1` (stereo not given) here?
**A.** The T/C was 125 % of control.

**Q.** For `Clc1ccc(-n2nnc3cc(Cl)ccc32)c(Cl)c1`, which survivor count (dose: 12.5 mg/kg/injection, schedule: Q01DX005 (ip), vehicle: saline with Tween-80) is on record?
**A.** Its survivor count is 6 of 6.

**Q.** What about the survivor count (dose: 50.0 mg/kg/injection, schedule: Q01DX005 (ip), vehicle: saline with Tween-80) of the same compound?
**A.** Its survivor count is 6 of 6.

**Q.** What about the survivor count (dose: 100.0 mg/kg/injection, schedule: Q01DX005 (ip), vehicle: saline with Tween-80) of the same compound?
**A.** Its survivor count is 6 of 6.

**Q.** What about the survivor count [2] of the same compound?
**A.** The survivor count was 6 of 6.

**Q.** Which survivor count (dose: 400.0 mg/kg/injection, schedule: Q04DX002 (ip), vehicle: saline with Tween-80) does the source give for `CCCCNC(=S)NNc1nc(N(CC)CC)nc(N(CC)CC)n1` here?
**A.** The survivor count was 5 of 6.
